Consider one substance from publication PMC9106718.

The assay concerns the target T1, GFP-tagged human heme oxidase-1 (human) (UniProt P09601).
T1 sequence: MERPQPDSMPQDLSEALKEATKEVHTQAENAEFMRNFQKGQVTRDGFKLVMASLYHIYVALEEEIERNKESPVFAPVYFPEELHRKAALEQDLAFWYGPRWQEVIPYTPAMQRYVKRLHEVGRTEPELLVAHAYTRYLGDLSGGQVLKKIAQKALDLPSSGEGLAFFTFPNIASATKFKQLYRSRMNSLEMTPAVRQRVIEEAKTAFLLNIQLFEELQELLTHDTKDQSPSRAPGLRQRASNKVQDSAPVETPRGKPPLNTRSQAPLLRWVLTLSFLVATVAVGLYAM
As to the kind of experiment: co-IP; INS-1 832/13 lysate (50 mM Tris-HCl pH 7.5, 150 mM NaCl, 1 mM EDTA, 0.1% NP-40) incubated with GFP-trap agarose beads 15 min at 4 °C; blotted with anti-RFP and anti-GFP; also after low (2.8 mM) or high (25 mM) glucose for 15 min.

No constants are given. Whether binding was seen depends on the method and setting. Binding seen in cells or lysates may run through a third protein. Sequences can lack the tags named with a protein.

Regarding “proinsulin-mRFP (from human preproinsulin tagged with mRFP at its C-terminus)”, the binding entry is recorded as “no binding”.
